# Results deposited as PubChem BioAssay AID1259405 (NCATS, 2018)
# Test: 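Mouse-designed siRNAs used to find CHO productivity engineering targets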 (primary screen)
# Cell system: Chinese hamster CHO-K1 ovary cells with stable secreted eGFP expression
# Reagents: single siRNA against mouse genes, 0.8 pmol siRNA per well (2 µl of 400 nM stock)
# Timing: 3 days
# Detection: 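Per-well intracellular GFP measured by laser scanning cytometry, plus viability from ATP luminescence, each relative to plate median of non-targeting control wells, in %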
# Direction: GFP, % of control: higher = more GFP per well, higher productivity; viability (ATP), % of control: higher = more viable cells (more ATP)
# Active means: 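a knock-down is called active if GFP reaches 120% or more of non-targeting control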
# Shown is a random part of about 50,000 reagents. Over the whole deposit, about 4,000 (8%) are marked active. 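Mouse siRNA library applied to hamster cells; one well for each siRNA.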 A number with no mark means an inactive call. Reagents against one gene are numbered here. Reagent sequences are not shown.
Target gene,siRNA no.,"GFP, % of control","viability (ATP), % of control"
Adcy9,1,105,105
Adcy9,2,176 (active),99.6
Adcy9,3,78.3,83.8
Fabp12,1,103,62.7
Fabp12,2,73.1,83.4
Fabp12,3,44.1,24.9
Per3,1,125 (active),42
Per3,2,42,51.9
Per3,3,73.2,101
Nup37,1,71.4,47.4
Nup37,2,53.5,71.5
Nup37,3,65.6,56.2
Fgf13,1,54.7,58.1
Fgf13,2,73.4,82
Fgf13,3,50.4,76.1
Zfp217,1,87.6,110
Zfp217,2,66.2,71.5
Zfp217,3,74.3,95
Or1e33,1,68.6,72.9
Or1e33,2,81.8,42.9
Or1e33,3,69.4,94.3
Ints9,1,82.8,118
Ints9,2,95.3,85.9
Ints9,3,190 (active),106
Ccnf,1,97.3,87.3
Ccnf,2,102,86.7
Zfp40,1,52.7,62.9
Zfp40,2,73.4,87.4
Zfp40,3,71.8,77.9
Or7e175,1,69,36.4
Or7e175,2,48.3,61.4
Or7e175,3,104,97.3
Mknk1,1,87.6,82.5
Hsd17b2,1,99.8,74.1
Hsd17b2,2,68.3,25.3
Hsd17b2,3,63.1,70.4
Adra2c,1,84.1,64.9
Adra2c,2,85,78.2
Adra2c,3,62.8,51
Slc35e2,1,45.6,16.1
Slc35e2,2,73,79.2
Slc35e2,3,71.7,78.2
Htr2c,1,71.5,63.1
Htr2c,2,81.3,73.5
Htr2c,3,71.4,65.8
Garre1,1,92.2,60.7
Garre1,2,116,65.4
Garre1,3,88.4,100
Abcg1,1,153 (active),68
Abcg1,2,40,43.2
Abcg1,3,89.3,83.5
Cldn1,1,96.6,71.2
Cldn1,2,98.6,96.7
Cldn1,3,85.1,83.9
Tnnt1,1,95.4,81.4
Tnnt1,2,73.5,69.2
Tnnt1,3,60.6,64
